Experimental data reported in PMC10746174.
These are yes or no findings as the source states them, for the method shown. Binding seen in cells or lysates may run through a third protein. Binding calls can cover weak binding; strength is not graded here.

Protein sequences, listed by entry. Tags and fused reporters are not part of them. Lines headed by an entry give the natural chain unless they say otherwise; changes in a name come on top.
UniProt P33927: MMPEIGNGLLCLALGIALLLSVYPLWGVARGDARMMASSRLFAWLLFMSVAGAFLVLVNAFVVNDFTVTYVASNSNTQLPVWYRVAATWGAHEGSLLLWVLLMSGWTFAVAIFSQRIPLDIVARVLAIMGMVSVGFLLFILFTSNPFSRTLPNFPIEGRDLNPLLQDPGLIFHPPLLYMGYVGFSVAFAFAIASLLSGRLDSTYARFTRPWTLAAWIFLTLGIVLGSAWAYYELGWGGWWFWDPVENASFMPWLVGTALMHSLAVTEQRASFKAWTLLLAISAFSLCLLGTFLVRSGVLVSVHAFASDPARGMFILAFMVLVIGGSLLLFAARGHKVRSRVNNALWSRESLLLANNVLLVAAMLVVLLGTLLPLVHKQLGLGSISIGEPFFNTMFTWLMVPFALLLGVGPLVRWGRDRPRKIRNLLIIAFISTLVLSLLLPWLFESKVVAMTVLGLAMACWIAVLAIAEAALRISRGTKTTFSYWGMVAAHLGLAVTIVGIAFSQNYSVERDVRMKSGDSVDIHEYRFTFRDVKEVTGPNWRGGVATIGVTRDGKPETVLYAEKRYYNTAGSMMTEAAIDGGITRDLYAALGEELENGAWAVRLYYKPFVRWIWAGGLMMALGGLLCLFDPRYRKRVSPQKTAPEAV

Tests used:
Assay in all cases: pull-down; CcmF:6×His (C-terminal tag) co-expressed with the complete System I pathway in E. coli Δccm (RK103) and affinity purified; 5 µg of purified protein separated by SDS-PAGE; immunoblots with α-CcmH and α-CcmE, heme stain for holoCcmE
[1] = target: CcmF:6×His P244A (E. coli) (UniProt P33927)
[2] = target: CcmF:6×His Y232A (E. coli) (UniProt P33927)
[3] = target: CcmF:6×His G235C (E. coli) (UniProt P33927)

binding [1]: binds
binding [2]: binds
binding [3]: binds
B1: CcmH (protein, UniProt P0ABM9 19-350)
chain: TIDVLQFKDEAQEQQFRQLTEELRCPKCQNNSIADSNSMIATDLRQKVYELMQEGKSKKEIVDYMVARYGNFVTYDPPLTPLTVLLWVLPVVAIGIGGWVIYARSRRRVRVVPEAFPEQSVPEGKRAGYVVYLPGIVVALIVAGVSYYQTGNYQQVKIWQQATAQAPALLDRALDPKADPLNEEEMSRLALGMRTQLQKNPGDIEGWIMLGRVGMALGNASIATDAYATAYRLDPKNSDAALGYAEALTRSSDPNDNRLGGELLRQLVRTDHSNIRVLSMYAFNAFEQQRFGEAVAAWEMMLKLLPANDTRRAVIERSIAQAMQHLSPQESK
